In patent publication US9516824B2, “Method for modulating the number of archesporial cells in a developing anther” (The Board of Trustees of the Leland Stanford Junior …, priority 2012, dated 2016):
At least one compound was matched to its structure with a doubt left.

System: maize anthers
Test: Ectopic archesporial (AR) cell formation after reducing or oxidizing treatments
Type: in vivo

`N#N` [N2, nitrogen] was tested, and the “niche - forming (periclinal divisions generating EN/SPL-like bilayer around ectopic AR)” value (fertile genotype) was “Y” and the “niche - forming (periclinal divisions generating EN/SPL-like bilayer around ectopic AR)” value (mac1 genotype) was “N”.
